This note sets out measurements from the supplement of paper PMC10849652.

The chains behind the UniProt entries cited, without tags or fusion partners. Where a name states a change or a piece, a line headed by the entry shows the natural chain unless it says otherwise.
UniProt Q8NBM8: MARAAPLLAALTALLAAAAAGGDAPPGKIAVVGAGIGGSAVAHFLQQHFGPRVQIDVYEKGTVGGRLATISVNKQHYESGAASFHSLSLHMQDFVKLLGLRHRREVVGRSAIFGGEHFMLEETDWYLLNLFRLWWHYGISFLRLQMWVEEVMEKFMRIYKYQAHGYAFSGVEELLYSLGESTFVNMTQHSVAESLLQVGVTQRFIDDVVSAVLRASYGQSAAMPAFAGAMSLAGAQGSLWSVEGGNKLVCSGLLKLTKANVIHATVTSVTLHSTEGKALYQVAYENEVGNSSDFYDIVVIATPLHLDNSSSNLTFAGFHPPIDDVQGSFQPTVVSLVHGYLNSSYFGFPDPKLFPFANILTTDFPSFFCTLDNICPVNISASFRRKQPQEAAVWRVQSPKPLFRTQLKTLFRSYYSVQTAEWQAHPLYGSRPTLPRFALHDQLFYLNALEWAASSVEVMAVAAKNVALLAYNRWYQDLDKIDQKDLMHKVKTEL
UniProt O00408, whole entry, looked up: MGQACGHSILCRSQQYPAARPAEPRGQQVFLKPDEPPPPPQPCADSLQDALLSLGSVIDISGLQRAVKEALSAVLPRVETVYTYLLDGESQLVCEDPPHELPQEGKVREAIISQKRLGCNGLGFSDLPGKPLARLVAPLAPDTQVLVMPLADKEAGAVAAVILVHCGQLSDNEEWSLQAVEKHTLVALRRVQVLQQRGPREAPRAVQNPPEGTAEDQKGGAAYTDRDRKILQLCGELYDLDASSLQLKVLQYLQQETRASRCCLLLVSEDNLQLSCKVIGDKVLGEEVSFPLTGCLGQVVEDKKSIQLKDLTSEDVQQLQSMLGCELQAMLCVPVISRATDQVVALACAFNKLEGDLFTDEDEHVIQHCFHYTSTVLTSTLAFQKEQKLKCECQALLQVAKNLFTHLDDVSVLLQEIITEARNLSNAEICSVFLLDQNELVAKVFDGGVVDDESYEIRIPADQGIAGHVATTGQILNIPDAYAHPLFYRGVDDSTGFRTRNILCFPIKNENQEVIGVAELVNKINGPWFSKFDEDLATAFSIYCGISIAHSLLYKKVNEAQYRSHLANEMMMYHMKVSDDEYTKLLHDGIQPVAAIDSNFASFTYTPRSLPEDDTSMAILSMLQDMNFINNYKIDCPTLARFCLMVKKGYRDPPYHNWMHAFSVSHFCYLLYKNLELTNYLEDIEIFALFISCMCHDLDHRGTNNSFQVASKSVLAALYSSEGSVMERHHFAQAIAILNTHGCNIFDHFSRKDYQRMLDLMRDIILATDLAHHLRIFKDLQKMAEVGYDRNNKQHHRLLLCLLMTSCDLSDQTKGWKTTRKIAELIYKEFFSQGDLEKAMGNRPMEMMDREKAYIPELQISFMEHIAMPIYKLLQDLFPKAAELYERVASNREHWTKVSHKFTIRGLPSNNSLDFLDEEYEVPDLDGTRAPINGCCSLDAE
UniProt Q15004: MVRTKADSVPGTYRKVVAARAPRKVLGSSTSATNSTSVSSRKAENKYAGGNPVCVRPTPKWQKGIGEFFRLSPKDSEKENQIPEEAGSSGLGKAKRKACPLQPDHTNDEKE
UniProt Q8WW12: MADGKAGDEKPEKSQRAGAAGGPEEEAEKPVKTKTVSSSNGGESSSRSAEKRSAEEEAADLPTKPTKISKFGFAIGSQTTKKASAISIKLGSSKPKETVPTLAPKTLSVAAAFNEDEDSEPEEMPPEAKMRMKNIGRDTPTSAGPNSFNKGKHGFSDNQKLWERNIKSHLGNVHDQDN
UniProt P30039: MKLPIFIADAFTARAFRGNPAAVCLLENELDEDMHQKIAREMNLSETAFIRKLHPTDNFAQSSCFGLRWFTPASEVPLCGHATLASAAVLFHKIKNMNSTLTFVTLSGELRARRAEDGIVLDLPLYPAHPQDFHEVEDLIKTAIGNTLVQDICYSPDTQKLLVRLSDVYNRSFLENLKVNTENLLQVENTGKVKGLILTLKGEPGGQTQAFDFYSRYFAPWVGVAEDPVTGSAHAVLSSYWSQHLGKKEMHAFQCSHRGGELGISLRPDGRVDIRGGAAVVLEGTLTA
UniProt P40855: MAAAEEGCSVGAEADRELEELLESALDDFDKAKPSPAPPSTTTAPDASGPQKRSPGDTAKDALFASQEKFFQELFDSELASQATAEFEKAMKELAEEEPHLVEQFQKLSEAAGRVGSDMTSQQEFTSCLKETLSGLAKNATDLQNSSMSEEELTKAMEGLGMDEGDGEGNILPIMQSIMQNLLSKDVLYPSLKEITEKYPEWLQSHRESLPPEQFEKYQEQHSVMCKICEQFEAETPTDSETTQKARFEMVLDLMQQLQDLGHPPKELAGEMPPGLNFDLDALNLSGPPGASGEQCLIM
UniProt Q9UBV8: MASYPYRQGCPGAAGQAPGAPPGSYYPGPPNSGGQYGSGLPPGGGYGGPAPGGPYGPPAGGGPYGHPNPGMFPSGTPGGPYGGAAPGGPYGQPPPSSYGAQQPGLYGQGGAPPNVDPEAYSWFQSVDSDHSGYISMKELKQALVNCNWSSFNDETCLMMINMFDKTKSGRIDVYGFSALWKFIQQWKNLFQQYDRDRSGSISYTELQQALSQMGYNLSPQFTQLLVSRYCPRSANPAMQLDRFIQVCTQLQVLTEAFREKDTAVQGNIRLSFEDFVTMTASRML
UniProt O60825: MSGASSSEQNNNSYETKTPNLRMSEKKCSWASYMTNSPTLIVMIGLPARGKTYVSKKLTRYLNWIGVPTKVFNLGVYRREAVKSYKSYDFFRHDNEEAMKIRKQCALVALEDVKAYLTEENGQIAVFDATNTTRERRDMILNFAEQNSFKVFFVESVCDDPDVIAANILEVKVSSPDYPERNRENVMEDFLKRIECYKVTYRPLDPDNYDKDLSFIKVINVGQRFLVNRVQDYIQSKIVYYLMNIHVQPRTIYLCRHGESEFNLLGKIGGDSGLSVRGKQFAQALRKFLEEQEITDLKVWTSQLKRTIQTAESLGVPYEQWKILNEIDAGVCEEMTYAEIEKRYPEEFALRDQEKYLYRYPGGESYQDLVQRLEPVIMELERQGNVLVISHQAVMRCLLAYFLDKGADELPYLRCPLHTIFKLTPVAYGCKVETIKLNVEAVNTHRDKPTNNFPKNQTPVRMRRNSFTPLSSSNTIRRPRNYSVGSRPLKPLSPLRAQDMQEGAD
UniProt P08559, whole entry, looked up: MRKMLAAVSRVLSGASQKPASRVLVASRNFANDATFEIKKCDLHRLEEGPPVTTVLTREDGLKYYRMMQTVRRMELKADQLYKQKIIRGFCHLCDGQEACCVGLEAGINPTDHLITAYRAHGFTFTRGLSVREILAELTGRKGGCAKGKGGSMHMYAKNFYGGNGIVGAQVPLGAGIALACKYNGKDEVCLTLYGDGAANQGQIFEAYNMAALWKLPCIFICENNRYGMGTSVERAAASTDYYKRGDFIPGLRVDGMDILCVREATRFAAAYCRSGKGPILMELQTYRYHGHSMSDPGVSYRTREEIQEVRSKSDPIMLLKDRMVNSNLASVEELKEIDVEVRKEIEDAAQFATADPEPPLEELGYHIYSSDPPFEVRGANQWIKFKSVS
UniProt O60658: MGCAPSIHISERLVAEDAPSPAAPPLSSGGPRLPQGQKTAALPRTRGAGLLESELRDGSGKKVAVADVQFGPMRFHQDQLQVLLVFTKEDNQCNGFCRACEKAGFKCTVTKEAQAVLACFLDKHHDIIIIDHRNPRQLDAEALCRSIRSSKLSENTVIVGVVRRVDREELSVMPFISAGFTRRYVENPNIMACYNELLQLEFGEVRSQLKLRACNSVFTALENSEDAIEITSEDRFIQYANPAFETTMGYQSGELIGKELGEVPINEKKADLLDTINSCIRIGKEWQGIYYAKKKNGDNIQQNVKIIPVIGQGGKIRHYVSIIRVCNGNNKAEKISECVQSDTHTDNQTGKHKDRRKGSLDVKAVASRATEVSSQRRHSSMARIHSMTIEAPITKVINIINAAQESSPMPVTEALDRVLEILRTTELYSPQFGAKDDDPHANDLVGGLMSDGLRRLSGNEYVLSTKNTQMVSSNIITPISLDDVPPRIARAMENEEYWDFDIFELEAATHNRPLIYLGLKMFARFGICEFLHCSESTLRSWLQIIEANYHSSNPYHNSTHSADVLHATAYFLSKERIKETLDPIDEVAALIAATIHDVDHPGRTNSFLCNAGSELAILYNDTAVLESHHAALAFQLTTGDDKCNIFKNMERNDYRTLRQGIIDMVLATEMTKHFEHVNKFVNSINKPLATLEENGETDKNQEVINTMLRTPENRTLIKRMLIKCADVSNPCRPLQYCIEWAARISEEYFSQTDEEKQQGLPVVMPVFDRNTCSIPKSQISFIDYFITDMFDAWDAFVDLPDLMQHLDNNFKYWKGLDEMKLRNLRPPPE
UniProt P0DJ07: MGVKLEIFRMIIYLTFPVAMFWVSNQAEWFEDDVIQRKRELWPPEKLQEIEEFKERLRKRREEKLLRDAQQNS
UniProt O00330, whole entry, looked up: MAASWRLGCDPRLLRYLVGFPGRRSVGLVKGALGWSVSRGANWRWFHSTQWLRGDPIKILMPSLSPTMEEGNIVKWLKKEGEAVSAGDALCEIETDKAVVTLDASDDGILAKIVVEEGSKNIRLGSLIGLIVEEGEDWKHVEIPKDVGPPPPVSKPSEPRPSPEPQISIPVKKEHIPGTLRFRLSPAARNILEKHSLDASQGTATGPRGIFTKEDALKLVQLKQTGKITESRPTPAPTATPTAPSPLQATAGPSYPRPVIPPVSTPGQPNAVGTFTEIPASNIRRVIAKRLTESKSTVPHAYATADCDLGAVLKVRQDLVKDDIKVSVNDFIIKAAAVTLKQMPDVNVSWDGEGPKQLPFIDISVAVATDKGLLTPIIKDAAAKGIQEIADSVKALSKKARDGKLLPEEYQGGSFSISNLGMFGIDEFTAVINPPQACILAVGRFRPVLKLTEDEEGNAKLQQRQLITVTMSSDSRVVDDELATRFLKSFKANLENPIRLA
UniProt O75340: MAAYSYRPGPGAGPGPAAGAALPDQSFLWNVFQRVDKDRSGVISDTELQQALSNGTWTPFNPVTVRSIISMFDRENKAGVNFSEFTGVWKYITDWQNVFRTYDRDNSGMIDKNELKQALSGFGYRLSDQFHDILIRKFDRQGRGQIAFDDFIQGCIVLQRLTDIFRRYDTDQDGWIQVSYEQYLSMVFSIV
UniProt Q96RG2: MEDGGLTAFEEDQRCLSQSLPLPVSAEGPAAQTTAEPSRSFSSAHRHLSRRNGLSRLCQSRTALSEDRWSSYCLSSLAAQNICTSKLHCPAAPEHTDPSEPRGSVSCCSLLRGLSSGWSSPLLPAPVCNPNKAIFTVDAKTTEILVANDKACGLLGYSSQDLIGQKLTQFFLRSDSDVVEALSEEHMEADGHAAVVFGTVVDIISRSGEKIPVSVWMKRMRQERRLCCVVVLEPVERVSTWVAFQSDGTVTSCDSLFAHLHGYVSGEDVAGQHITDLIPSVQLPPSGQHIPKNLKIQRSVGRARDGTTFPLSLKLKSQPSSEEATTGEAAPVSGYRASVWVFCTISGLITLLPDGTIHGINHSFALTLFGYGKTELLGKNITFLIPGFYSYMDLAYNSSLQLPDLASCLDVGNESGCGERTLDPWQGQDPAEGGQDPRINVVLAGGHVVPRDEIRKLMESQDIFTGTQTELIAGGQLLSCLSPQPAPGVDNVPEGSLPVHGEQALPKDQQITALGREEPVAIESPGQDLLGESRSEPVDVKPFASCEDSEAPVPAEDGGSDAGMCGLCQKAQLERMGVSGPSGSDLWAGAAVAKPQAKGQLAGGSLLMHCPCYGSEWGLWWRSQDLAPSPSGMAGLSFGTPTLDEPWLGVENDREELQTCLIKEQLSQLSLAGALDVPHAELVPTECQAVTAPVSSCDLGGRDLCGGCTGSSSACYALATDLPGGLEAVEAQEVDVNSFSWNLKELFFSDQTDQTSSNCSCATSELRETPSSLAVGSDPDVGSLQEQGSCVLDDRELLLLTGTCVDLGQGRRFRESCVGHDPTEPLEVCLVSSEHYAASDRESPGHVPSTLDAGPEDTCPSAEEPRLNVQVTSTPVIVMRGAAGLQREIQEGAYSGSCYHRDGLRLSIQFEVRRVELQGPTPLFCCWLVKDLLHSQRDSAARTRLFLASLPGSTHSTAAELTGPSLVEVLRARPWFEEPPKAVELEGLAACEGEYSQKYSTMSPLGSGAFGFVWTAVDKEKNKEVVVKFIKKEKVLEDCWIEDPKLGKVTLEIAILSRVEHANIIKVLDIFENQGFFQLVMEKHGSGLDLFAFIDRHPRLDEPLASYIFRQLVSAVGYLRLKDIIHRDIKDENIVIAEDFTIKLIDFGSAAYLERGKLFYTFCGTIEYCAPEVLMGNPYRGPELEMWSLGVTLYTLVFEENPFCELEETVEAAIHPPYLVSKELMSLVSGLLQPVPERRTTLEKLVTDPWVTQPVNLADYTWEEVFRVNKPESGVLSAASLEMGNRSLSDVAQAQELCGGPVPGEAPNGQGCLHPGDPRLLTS
UniProt Q9H0N5: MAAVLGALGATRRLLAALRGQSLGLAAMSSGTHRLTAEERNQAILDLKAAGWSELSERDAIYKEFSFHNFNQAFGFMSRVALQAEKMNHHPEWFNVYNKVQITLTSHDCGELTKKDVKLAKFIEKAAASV

The list shows a part of the results.

Compound in the first assay: C1=CC=C(C=C1)[C@H](COC2=CC3=C(C=C2)NC(=O)N3)NC(=O)C4=CC=CN(C4=O)CC5=CC(=C(C=C5)F)F
Briefly: log2 fold change, soluble protein after heating vs DMSO (PISA); higher = thermal stabilisation; K562 lysate, 10 uM; active = over 0.2 and 3.5 SD of the protein, either way, in both replicates (recomputed). A digest of the protocol:
(§1)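 Soluble protein was defined as the supernatant remaining after 21,000xg for 90 min, following pooling of heated aliquots and adjustment to 0.5% NP-40 at 4°C. Before that, crude K562 extract at 1 mg/mL protein in PBS pH 7.4 with 1 mM MgCl2 was treated with 10 μM compound for 30 min and heated for 3 min across 48°C-58°C. Quantification used TMTpro 16plex LC-MS/MS with channel sums equalised, and values are log-two fold changes in thermal stability relative to solvent controls from duplicates.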
In the case of PCYOX1L (UniProt Q8NBM8), the log2 fold change is inactive: 0.017.
Still for that read-out and setting: the same measure for PDE2A (UniProt O00408): inactive: 0.012.
Same read-out and setting: the same measure for PCLAF (UniProt Q15004): inactive: 0.053; for PCNP (UniProt Q8WW12): inactive: 0.023.
On the same count and under the same terms, the figure for PECAM1 (UniProt P16284) is inactive: -0.013; for PEAK1 (UniProt Q9H792) it is inactive: -0.179; for PBLD (UniProt P30039) it is inactive: -0.013.
In the case of PEX19 (UniProt P40855), the log2 fold change is inactive: -0.033.
On the same count and under the same terms, the figure for PEF1 (UniProt Q9UBV8) is inactive: 0.016.
The same measure, in the same setting: the same measure for PFKFB2 (UniProt O60825): inactive: 0.016; for PARP9 (UniProt Q8IXQ6): inactive: 0.186; for PCBP2 isoform 8 (UniProt Q15366): inactive: 0.098.
Still for that read-out and setting: the same measure for PDHA1 isoform 4 (UniProt P08559): inactive: -0.014.
PDE8A (UniProt O60658): the log2 fold change is inactive: -0.099.
On to PET100 (UniProt P0DJ07), for which the log2 fold change was inactive: 0.062.
The same measure, in the same setting: the figure for PDHX (UniProt O00330) is inactive: 0.014; for PDCD6 (UniProt O75340) it is inactive: -0.017.
Turning to PASK (UniProt Q96RG2), the log2 fold change is inactive: -0.002.

Compound in another assay: CC1=C(SC2=C1C(=N[C@H](C3=NN=C(N32)C)CC(=O)N)C4=CC=C(C=C4)Cl)C
The assay is described as above. The essentials: as §1
Regarding PGAM1 (UniProt P18669), the log2 fold change is inactive: -0.026.
Still for that read-out and setting: the figure for PDE12 (UniProt Q6L8Q7) is inactive: 0.025; for PDK1 (UniProt Q15118) it is inactive: 0.037.
As for PCGF5 (UniProt Q86SE9), the log2 fold change is inactive: 0.095.
Same read-out and setting: the same measure for PCYOX1 (UniProt Q9UHG3): inactive: 0.003.
The same measure, in the same setting: the same measure for PCBD2 (UniProt Q9H0N5): inactive: 0.048; for PDIA5 (UniProt Q14554): inactive: 0; for PGD (UniProt K7EPF6): inactive: -0.028.
Still for that read-out and setting: the same measure for PC (UniProt P11498): inactive: 0.002.
For the target PFKL isoform 2 (UniProt P17858), the log2 fold change is inactive: 0.013.
Still for that read-out and setting: the same measure for PEX10 isoform 2 (UniProt O60683): inactive: -0.377; for PCBP2 (UniProt F8W0G4): inactive: 0.052; for PDS5A (UniProt Q29RF7): inactive: -0.031.
The same measure, in the same setting: the same measure for PCTP (UniProt Q9UKL6): inactive: 0.017; for PDCD5 (UniProt O14737): inactive: -0.021; for PDIA3 (UniProt H7BZJ3): inactive: 0.078.
As to PFKM isoform 3 (UniProt P08237), the log2 fold change was inactive: 0.021.
The same measure, in the same setting: the same measure for PDCD6IP isoform 2 (UniProt Q8WUM4): inactive: -0.004.
Same read-out and setting: the figure for PDCD10 (UniProt Q9BUL8) is inactive: 0.02; for PCM1 (UniProt Q15154) it is inactive: -0.002; for PDE4DIP isoform 4 (UniProt Q5VU43) it is inactive: 0.154.
On the same count and under the same terms, the same measure for PARP16 isoform 3 (UniProt Q8N5Y8): inactive: 0.071; for PCYOX1L (UniProt Q8NBM8): inactive: 0.016.
On to PDE2A (UniProt O00408), for which the log2 fold change was inactive: 0.067.
Still for that read-out and setting: the figure for PCLAF (UniProt Q15004) is inactive: 0.016; for PCNP (UniProt Q8WW12) it is inactive: 0.038; for PECAM1 (UniProt P16284) it is inactive: 0.018.
For PEAK1 (UniProt Q9H792), the log2 fold change is inactive: 0.113.
As for PBLD (UniProt P30039), the log2 fold change was inactive: 0.031.
Same read-out and setting: the same measure for PEX19 (UniProt P40855): inactive: -0.031; for PEF1 (UniProt Q9UBV8): inactive: -0.039; for PFKFB2 (UniProt O60825): inactive: 0.001.
The same measure, in the same setting: the same measure for PARP9 (UniProt Q8IXQ6): inactive: 0.017; for PCBP2 isoform 8 (UniProt Q15366): inactive: 0.065.
The same measure, in the same setting: the figure for PDHA1 isoform 4 (UniProt P08559) is inactive: 0.014.
PDE8A (UniProt O60658): the log2 fold change is inactive: -0.178.
In the case of PET100 (UniProt P0DJ07), the log2 fold change is inactive: 0.031.
Take PDHX (UniProt O00330): the log2 fold change is inactive: 0.001.
The same measure, in the same setting: the same measure for PDCD6 (UniProt O75340): inactive: -0.012.
The same measure, in the same setting: the same measure for PASK (UniProt Q96RG2): inactive: -0.031.

Compound in a further assay: CC1=C2C(=CC=C1)N=C(N(C2=O)C3=CC=CC=C3C)CN4C=NC5=C(N=CN=C54)N
The assay is described as above. The essentials:
as §1
Turning to PGAM1 (UniProt P18669), the log2 fold change is inactive: -0.03.
On the same count and under the same terms, the figure for PDE12 (UniProt Q6L8Q7) is inactive: 0.
As to PDK1 (UniProt Q15118), the log2 fold change was inactive: 0.045.
Still for that read-out and setting: the same measure for PCGF5 (UniProt Q86SE9): inactive: 0.028; for PCYOX1 (UniProt Q9UHG3): inactive: -0.025; for PCBD2 (UniProt Q9H0N5): inactive: 0.002.
The same measure, in the same setting: the figure for PDIA5 (UniProt Q14554) is inactive: -0.012; for PC (UniProt P11498) it is inactive: 0.017; for PFKL isoform 2 (UniProt P17858) it is inactive: 0.099.
The same measure, in the same setting: the same measure for PCBP2 (UniProt F8W0G4): inactive: 0.043; for PDS5A (UniProt Q29RF7): inactive: 0.017; for PCTP (UniProt Q9UKL6): inactive: -0.009.
Regarding PDCD5 (UniProt O14737), the log2 fold change was inactive: -0.012.
The same measure, in the same setting: the figure for PDIA3 (UniProt H7BZJ3) is inactive: 0.058.
In the case of PFKM isoform 3 (UniProt P08237), the log2 fold change is inactive: 0.093.
The same measure, in the same setting: the same measure for PDCD6IP isoform 2 (UniProt Q8WUM4): inactive: 0.018; for PDCD10 (UniProt Q9BUL8): inactive: -0.013.
The same measure, in the same setting: the same measure for PCM1 (UniProt Q15154): inactive: 0.022; for PDE4DIP isoform 4 (UniProt Q5VU43): inactive: 0.018.
For the target PARP16 isoform 3 (UniProt Q8N5Y8), the log2 fold change is inactive: -0.038.
Take PCYOX1L (UniProt Q8NBM8): the log2 fold change was inactive: 0.068.
The same measure, in the same setting: the figure for PDE2A (UniProt O00408) is inactive: 0.163.
Still for that read-out and setting: the same measure for PCLAF (UniProt Q15004): inactive: -0.037.
In the case of PCNP (UniProt Q8WW12), the log2 fold change is inactive: -0.023.
Regarding PECAM1 (UniProt P16284), the log2 fold change is inactive: -0.064.
On the same count and under the same terms, the same measure for PEAK1 (UniProt Q9H792): inactive: 0.146.
The same measure, in the same setting: the same measure for PBLD (UniProt P30039): inactive: 0.09.
On the same count and under the same terms, the same measure for PEX19 (UniProt P40855): inactive: -0.012; for PEF1 (UniProt Q9UBV8): inactive: 0.055.
Turning to PFKFB2 (UniProt O60825), the log2 fold change was inactive: 0.03.
For the target PARP9 (UniProt Q8IXQ6), the log2 fold change is inactive: 0.084.
For the target PCBP2 isoform 8 (UniProt Q15366), the log2 fold change is inactive: -0.038.
Still for that read-out and setting: the figure for PDHA1 isoform 4 (UniProt P08559) is inactive: 0.01.
Same read-out and setting: the same measure for PDE8A (UniProt O60658): inactive: 0.381; for PET100 (UniProt P0DJ07): inactive: 0.072.
Same read-out and setting: the figure for PDHX (UniProt O00330) is inactive: 0.005.
Turning to PDCD6 (UniProt O75340), the log2 fold change is inactive: -0.04.
As to PASK (UniProt Q96RG2), the log2 fold change was inactive: -0.031.
